{"source": "the supplement of paper PMC11732987", "about": "“Enantioselective OTUD7B fragment discovery through chemoproteomics screening and high-throughput optimisation” (Communications Chemistry, 2025)", "key": {"[1]": {"compound": "ClCC(=O)N[C@@H]1CCCc2ccccc12", "test": "log2 mean competition ratio of IA-DTB cysteine labelling (DMSO/compound) (log2 ratio); higher = stronger cysteine engagement by compound", "conditions": "treatment time: 4 h, cell line lysate: HEK293T", "procedure": "(§1)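 IA-DTB competitive cysteine chemoproteomics in HEK293T RIPA lysate. Lysates were treated with compound 29 or 30 at 50 or 200 µM for 4 h, then IA-DTB (500 µM, 1 h), trypsin-digested, NeutrAvidin-enriched and analysed by diaPASEF. Competition ratio = intensity DMSO / intensity compound (n=4 treated, n=64 DMSO); binding: mean log2 CR ≥ 1 and p ≤ 0.05 plus QC filters. Target is the cysteine site.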"}, "[2]": {"compound": "ClCC(=O)N[C@H]1CCCc2ccccc12", "test": "log2 mean competition ratio of IA-DTB cysteine labelling (DMSO/compound) (log2 ratio); higher = stronger cysteine engagement by compound", "conditions": "treatment time: 4 h, cell line lysate: HEK293T", "procedure": "as §1"}}, "note": "This is one part of the list. The data scatter; read single values as rough."}
{"target": "PPM1E C525 (UniProt Q8WY54)", "values": [{"measurement": "log2 mean competition ratio", "setting": "[1]; 50 µM", "value": -0.473}, {"measurement": "log2 mean competition ratio", "setting": "[1]; 200 µM", "value": 0.223}, {"measurement": "log2 mean competition ratio", "setting": "[2]; 50 µM", "value": 0.373}, {"measurement": "log2 mean competition ratio", "setting": "[2]; 200 µM", "value": 0.0841}]}
{"target": "PRKD2 C314", "values": [{"measurement": "log2 mean competition ratio", "setting": "[1]; 50 µM", "value": -0.552}, {"measurement": "log2 mean competition ratio", "setting": "[1]; 200 µM", "value": 0.0862}, {"measurement": "log2 mean competition ratio", "setting": "[2]; 50 µM", "value": -0.415}, {"measurement": "log2 mean competition ratio", "setting": "[2]; 200 µM", "value": -0.0462}]}
{"target": "PORCN C375 (UniProt Q9H237)", "values": [{"measurement": "log2 mean competition ratio", "setting": "[1]; 50 µM", "value": 0.467}, {"measurement": "log2 mean competition ratio", "setting": "[1]; 200 µM", "value": 0.204}, {"measurement": "log2 mean competition ratio", "setting": "[2]; 50 µM", "value": 0.532}, {"measurement": "log2 mean competition ratio", "setting": "[2]; 200 µM", "value": 0.072}]}
{"target": "PRIM2 C111 (UniProt P49643)", "values": [{"measurement": "log2 mean competition ratio", "setting": "[1]; 50 µM", "value": 0.554}, {"measurement": "log2 mean competition ratio", "setting": "[1]; 200 µM", "value": 0.107}, {"measurement": "log2 mean competition ratio", "setting": "[2]; 50 µM", "value": -0.0104}, {"measurement": "log2 mean competition ratio", "setting": "[2]; 200 µM", "value": -0.149}]}
{"target": "PRKCZ C107 (UniProt Q05513)", "values": [{"measurement": "log2 mean competition ratio", "setting": "[1]; 50 µM", "value": 0.12}, {"measurement": "log2 mean competition ratio", "setting": "[1]; 200 µM", "value": -0.178}, {"measurement": "log2 mean competition ratio", "setting": "[2]; 50 µM", "value": 0.294}, {"measurement": "log2 mean competition ratio", "setting": "[2]; 200 µM", "value": -0.201}]}
{"target": "PPP6R1 C437 (UniProt Q9UPN7)", "values": [{"measurement": "log2 mean competition ratio", "setting": "[1]; 50 µM", "value": 0.101}, {"measurement": "log2 mean competition ratio", "setting": "[1]; 200 µM", "value": 0.227}, {"measurement": "log2 mean competition ratio", "setting": "[2]; 50 µM", "value": 0.0472}, {"measurement": "log2 mean competition ratio", "setting": "[2]; 200 µM", "value": 0.00937}]}
{"target": "POLR2M C65", "values": [{"measurement": "log2 mean competition ratio", "setting": "[1]; 50 µM", "value": -0.148}, {"measurement": "log2 mean competition ratio", "setting": "[1]; 200 µM", "value": 0.237}, {"measurement": "log2 mean competition ratio", "setting": "[2]; 50 µM", "value": -0.201}, {"measurement": "log2 mean competition ratio", "setting": "[2]; 200 µM", "value": 0.319}]}
{"target": "PPP1R18 C276 (UniProt Q6NYC8)", "values": [{"measurement": "log2 mean competition ratio", "setting": "[1]; 50 µM", "value": -0.252}, {"measurement": "log2 mean competition ratio", "setting": "[1]; 200 µM", "value": -0.0638}, {"measurement": "log2 mean competition ratio", "setting": "[2]; 50 µM", "value": -0.282}, {"measurement": "log2 mean competition ratio", "setting": "[2]; 200 µM", "value": -0.11}]}
{"target": "POTEF C917 (UniProt A5A3E0)", "values": [{"measurement": "log2 mean competition ratio", "setting": "[1]; 50 µM", "value": 0.198}, {"measurement": "log2 mean competition ratio", "setting": "[1]; 200 µM", "value": 0.0538}, {"measurement": "log2 mean competition ratio", "setting": "[2]; 50 µM", "value": 0.715}, {"measurement": "log2 mean competition ratio", "setting": "[2]; 200 µM", "value": -0.0975}]}
{"target": "PRPF8 C772 (UniProt Q6P2Q9)", "values": [{"measurement": "log2 mean competition ratio", "setting": "[1]; 50 µM", "value": -0.00577}, {"measurement": "log2 mean competition ratio", "setting": "[1]; 200 µM", "value": 0.256}, {"measurement": "log2 mean competition ratio", "setting": "[2]; 50 µM", "value": 0.0651}, {"measurement": "log2 mean competition ratio", "setting": "[2]; 200 µM", "value": 0.503}]}
{"target": "POLRMT C765 (UniProt O00411)", "values": [{"measurement": "log2 mean competition ratio", "setting": "[1]; 50 µM", "value": 0.19}, {"measurement": "log2 mean competition ratio", "setting": "[1]; 200 µM", "value": -0.0606}, {"measurement": "log2 mean competition ratio", "setting": "[2]; 50 µM", "value": 0.0588}, {"measurement": "log2 mean competition ratio", "setting": "[2]; 200 µM", "value": 0.0123}]}
{"target": "PRR12 C994 (UniProt Q9ULL5)", "values": [{"measurement": "log2 mean competition ratio", "setting": "[1]; 50 µM", "value": -0.0782}, {"measurement": "log2 mean competition ratio", "setting": "[1]; 200 µM", "value": 0.288}, {"measurement": "log2 mean competition ratio", "setting": "[2]; 50 µM", "value": 0.365}, {"measurement": "log2 mean competition ratio", "setting": "[2]; 200 µM", "value": 0.403}]}
{"target": "PRAF2 C28 (UniProt O60831)", "values": [{"measurement": "log2 mean competition ratio", "setting": "[1]; 50 µM", "value": -0.0301}, {"measurement": "log2 mean competition ratio", "setting": "[1]; 200 µM", "value": 0.0594}, {"measurement": "log2 mean competition ratio", "setting": "[2]; 50 µM", "value": 0.0354}, {"measurement": "log2 mean competition ratio", "setting": "[2]; 200 µM", "value": 0.198}]}
{"target": "POM121 C307 (UniProt Q96HA1)", "values": [{"measurement": "log2 mean competition ratio", "setting": "[1]; 50 µM", "value": -0.203}, {"measurement": "log2 mean competition ratio", "setting": "[1]; 200 µM", "value": 0.279}, {"measurement": "log2 mean competition ratio", "setting": "[2]; 50 µM", "value": 0.0513}, {"measurement": "log2 mean competition ratio", "setting": "[2]; 200 µM", "value": 0.179}]}
{"target": "POLR2G C38 (UniProt P62487)", "values": [{"measurement": "log2 mean competition ratio", "setting": "[1]; 50 µM", "value": -0.0862}, {"measurement": "log2 mean competition ratio", "setting": "[1]; 200 µM", "value": -0.0847}, {"measurement": "log2 mean competition ratio", "setting": "[2]; 50 µM", "value": -0.305}, {"measurement": "log2 mean competition ratio", "setting": "[2]; 200 µM", "value": -0.0718}]}
{"target": "PPCDC C173 (UniProt Q96CD2)", "values": [{"measurement": "log2 mean competition ratio", "setting": "[1]; 50 µM", "value": -0.127}, {"measurement": "log2 mean competition ratio", "setting": "[1]; 200 µM", "value": -0.092}, {"measurement": "log2 mean competition ratio", "setting": "[2]; 50 µM", "value": 0.276}, {"measurement": "log2 mean competition ratio", "setting": "[2]; 200 µM", "value": -0.131}]}
{"target": "PPP1R37 C451 (UniProt O75864)", "values": [{"measurement": "log2 mean competition ratio", "setting": "[1]; 50 µM", "value": -0.0806}, {"measurement": "log2 mean competition ratio", "setting": "[1]; 200 µM", "value": 0.169}, {"measurement": "log2 mean competition ratio", "setting": "[2]; 50 µM", "value": -0.649}, {"measurement": "log2 mean competition ratio", "setting": "[2]; 200 µM", "value": 0.163}]}
{"target": "PRC1 C236 (UniProt O43663)", "values": [{"measurement": "log2 mean competition ratio", "setting": "[1]; 50 µM", "value": -0.0457}, {"measurement": "log2 mean competition ratio", "setting": "[1]; 200 µM", "value": -0.4}, {"measurement": "log2 mean competition ratio", "setting": "[2]; 50 µM", "value": -0.204}, {"measurement": "log2 mean competition ratio", "setting": "[2]; 200 µM", "value": -0.273}]}
{"target": "PRKCD C208 (UniProt Q05655)", "values": [{"measurement": "log2 mean competition ratio", "setting": "[1]; 50 µM", "value": -0.0881}, {"measurement": "log2 mean competition ratio", "setting": "[1]; 200 µM", "value": 0.0207}, {"measurement": "log2 mean competition ratio", "setting": "[2]; 50 µM", "value": -0.0793}, {"measurement": "log2 mean competition ratio", "setting": "[2]; 200 µM", "value": -0.00616}]}
{"target": "PRPF19 C114 (UniProt Q9UMS4)", "values": [{"measurement": "log2 mean competition ratio", "setting": "[1]; 50 µM", "value": -0.0813}, {"measurement": "log2 mean competition ratio", "setting": "[1]; 200 µM", "value": 0.212}, {"measurement": "log2 mean competition ratio", "setting": "[2]; 50 µM", "value": -0.312}, {"measurement": "log2 mean competition ratio", "setting": "[2]; 200 µM", "value": 0.136}]}
{"target": "POLRMT C413 (UniProt O00411)", "values": [{"measurement": "log2 mean competition ratio", "setting": "[1]; 50 µM", "value": 0.127}, {"measurement": "log2 mean competition ratio", "setting": "[1]; 200 µM", "value": -0.0226}, {"measurement": "log2 mean competition ratio", "setting": "[2]; 50 µM", "value": -0.578}, {"measurement": "log2 mean competition ratio", "setting": "[2]; 200 µM", "value": -0.123}]}
{"target": "PPIA C161 (UniProt P62937)", "values": [{"measurement": "log2 mean competition ratio", "setting": "[1]; 50 µM", "value": -0.217}, {"measurement": "log2 mean competition ratio", "setting": "[1]; 200 µM", "value": 0.208}, {"measurement": "log2 mean competition ratio", "setting": "[2]; 50 µM", "value": -0.122}, {"measurement": "log2 mean competition ratio", "setting": "[2]; 200 µM", "value": 0.304}]}
{"target": "PRCP C233 (UniProt P42785)", "values": [{"measurement": "log2 mean competition ratio", "setting": "[1]; 50 µM", "value": 0.281}, {"measurement": "log2 mean competition ratio", "setting": "[1]; 200 µM", "value": -0.52}, {"measurement": "log2 mean competition ratio", "setting": "[2]; 50 µM", "value": -0.00296}, {"measurement": "log2 mean competition ratio", "setting": "[2]; 200 µM", "value": -0.48}]}
{"target": "POLR2B C1137 (UniProt P30876)", "values": [{"measurement": "log2 mean competition ratio", "setting": "[1]; 50 µM", "value": -0.0939}, {"measurement": "log2 mean competition ratio", "setting": "[1]; 200 µM", "value": 0.224}, {"measurement": "log2 mean competition ratio", "setting": "[2]; 50 µM", "value": -0.101}, {"measurement": "log2 mean competition ratio", "setting": "[2]; 200 µM", "value": 0.0966}]}
